Some of the results follow. The main result of the screen is listed elsewhere. These columns were measured beside it and carry no call. The list favours compounds with an active or inconclusive main result. Words in brackets tell the shape of the fitted curve; partial curves, single points and poor fits give uncertain potencies.
Assay: qHTS Assay for Lipid Storage Modulators in Drosophila S3 Cells;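 for cell number change: cells counted by Cell Tracker Red CMTPX staining in the red channel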
Conditions: BODIPY lipid droplet fluorescence, 18-24 h; for cell number change: measured here: cell count max response, cells fed with added oleic acid
In short: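 Drosophila S3 cells loaded with oleic acid (400 uM, as added) and compounds at several concentrations; lipid droplets imaged by 488-nm laser-scanning cytometry, 500–530 nm intensity and object ratio to cell channel. Percent activity normalized to 20 uM Triacsin C.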

[1] = measured here: lipid fluorescence (Fed channel) AC50, cells fed with added oleic acid
[2] = measured here: cell number channel AC50, cells fed with added oleic acid

| Compound | cell number change | AC50 [1] | AC50 [2] |
| --- | --- | --- | --- |
| CCN1CCN(C2=C(NS(=O)(=O)c3ccc(Br)cc3)C(=O)c3ccccc3C2=O)CC1 | -18.6% | 29.1 µM [falling, single point] |  |
| Cc1ccc(-c2cc(C(=O)O)n[nH]2)s1 | -20.8% |  | 2.91 µM [falling, single point] |
| O=C(c1cnc2n(c1=O)CCS2)N1CCN(c2ccc([N+](=O)[O-])cc2)CC1 | -0.613% | 7.31 µM [falling, partial curve] | 1.64 µM [falling, partial curve, poor fit] |
| CSc1nc2ccc(S(=O)(=O)N3CCCCC3)cc2s1 | 20.7% |  |  |
| CCOC(=O)CSc1cc(C)nc(NC(C)=O)n1 | 1.78% | 0.0731 µM [falling, full curve, poor fit] |  |
| Cc1sc2ncnc(OCC(=O)NC(C)C)c2c1C |  | 6.51 µM [falling, single point] |  |
| COc1cccc(OCc2cc(C(=O)N3CCN(c4ccccc4O)CC3)no2)c1 | -1.13% | 6.51 µM [rising, partial curve, poor fit] | 0.00411 µM [rising, full curve, poor fit] |
| O=C(NC1CS(=O)(=O)CC1NCc1ccco1)c1ccccc1 (stereo not given) | 30.6% | 4.11 µM [falling, full curve, poor fit] | 29.1 µM [rising, single point] |
| Clc1ccc(-c2nnc3sc(-c4ccc(Br)o4)nn23)cc1 | 88.2% | 0.206 µM [rising, full curve, poor fit] | 0.184 µM [rising, full curve, poor fit] |
| CC(=O)Nc1cccc(N2CCCC2=O)c1 | 3.94% | 32.6 µM [rising, single point] |  |
| CCN1CCN(C(=O)c2ccccc2NS(=O)(=O)c2ccc(Cl)cc2)CC1 |  |  | 0.116 µM [rising, single point] |
| CN1CCN(CCCNC(=O)c2ccc(Cn3c(=S)[nH]c4ccc(Br)cc4c3=O)cc2)CC1 | 1.68% |  |  |
| Cc1ccc(NC(=S)Nc2ccc(F)cc2)c(C)c1 | 60.7% |  | 16.4 µM [rising, single point] |
| Cc1ccc(N2CC(C(=O)OCC(=O)c3ccc(C)c([N+](=O)[O-])c3)CC2=O)cc1 (stereo not given) | 14.8% | 1.16 µM [falling, full curve] |  |
| O=C(COC(=O)c1cncc(Br)c1)NCc1ccccc1Cl | 9.07% | 20.6 µM [falling, partial curve, poor fit] |  |
| COC(=O)C1=C(C)OC(N)=C(C#N)C1c1cc2cc(C)ccc2nc1Cl (stereo not given) | -5.57% | 0.058 µM [falling, full curve, poor fit] |  |
| C[C@H](NC(=O)[C@@H]1Cc2ccccc2CN1)C(=O)Nc1ccc2c(c1)OCCO2 | 15.8% | 0.326 µM [rising, partial curve, poor fit] |  |
| O=C(NCCC(=O)N1CCN(c2cccc(Cl)c2)CC1)c1ccc(Br)cc1 | -14.9% | 4.11 µM [falling, partial curve, poor fit] |  |
| O=C(CSc1nnc(Cc2ccccc2)n1Cc1ccco1)NC1CCCC1 | 29% |  |  |
| O=C(N/N=C/C=C/c1ccccc1)c1n[nH]c2c1CCC2 | 16.6% |  |  |

| Compound | cell number change | AC50 [1] | AC50 [2] |
| --- | --- | --- | --- |
| COc1cc2ccccc2cc1C(=O)N1CCN(C)CC1 | 12.2% |  |  |
| O=C(O)c1cccc(Cn2c(Cl)c(/C=N/NC(=O)c3cccc(O)c3)sc2=O)c1 | -8.52% | 0.731 µM [falling, full curve] |  |
| CCN(CC)CCNC(=O)Cn1nc(Cc2ccccc2)c2ccccc2c1=O | 0.503% | 6.51 µM [falling, single point] |  |
| Cc1ccc(S(=O)(=O)N2CCOC2CNC(=O)C(=O)NCCN(C)C)cc1 (stereo not given) | -2.35% |  |  |
| Cc1ccccc1C(=O)NNC(=O)C1CCN(c2ncccn2)CC1 | -1.25% | 0.103 µM [rising, single point] |  |
| CCn1cc(CNCc2cn(-c3ccccc3C)nc2-c2ccc(OC)c(F)c2)cn1 | 3.68% |  |  |
| COc1cccc(NC(=O)NNC(=O)CCc2ccc(O)c(O)c2)c1 | 42.9% | 25.9 µM [rising, single point] | 29.1 µM [rising, single point] |
| C=C(C)CSc1nc2nc(C)c(Br)cc2[nH]1 | 30% | 4.61 µM [falling, partial curve, poor fit] |  |
| COC(CNC(=O)c1ccc2c(c1)ncn2-c1cccc(C)c1)OC | 2.13% | 11.6 µM [rising, partial curve] |  |
| O=C1NC2(C=Cc3c(ccc4ccccc34)O2)Oc2ccccc21 (stereo not given) | 3.6% |  | 3.66 µM [rising, single point] |
| CCn1c2ccccc2c2cc(NC(=O)c3cc(OC)cc(OC)c3)ccc21 | 12.1% | 1.46 µM [rising, partial curve] | 1.16 µM [rising, partial curve] |
| NC(=O)c1cccnc1Oc1ccccc1 | -8.72% |  | 6.51 µM [falling, single point] |
| CCN(CC)S(=O)(=O)c1ccc(C(=O)NCCN2C(=O)S/C(=C\c3cccnc3)C2=O)cc1 | 24.2% | 23.1 µM [rising, single point] |  |
| Cc1noc2c1C(c1ccc(N(C)C)cc1)C1=C(CC(C)(C)CC1=O)N2 (stereo not given) | 37.4% |  | 25.9 µM [rising, single point] |
| Cc1nc(-c2nc(-c3c(C(=O)NNC(=O)c4ccc(Cl)cc4)noc3C)cs2)cs1 | 5.83% | 29.1 µM [rising, single point] |  |
| CCN(CC)C(=O)c1nc[nH]c1C(=O)N(C)Cc1ccccc1 | 19.4% | 6.51 µM [falling, single point] | 3.26 µM [falling, single point] |
| Cc1[nH]c2c(C)cccc2c1CCNC(=O)c1ccc2c(c1[N+](=O)[O-])C(=O)c1ccccc1C2=O | -54.8% | 29.1 µM [falling, single point] | 20.6 µM [falling, partial curve] |
| Cc1onc(-c2ccccc2Cl)c1C(=O)NNC(=O)c1ccc(F)cc1 |  | 0.116 µM [falling, single point] |  |
| Cc1ccc2c(c1)N(CC(=O)N1CCC(C)CC1)C(=O)c1cccnc1O2 |  | 0.58 µM [rising, single point] |  |
| Cc1ccccc1C(=O)NCc1nnc(SCC(=O)N2CCN(c3ccccc3)CC2)n1C | 32.6% |  | 7.31 µM [rising, partial curve, poor fit] |

4 entries from above, as tab-separated lines.
Compound	cell number change	AC50 [1]	AC50 [2]
Cc1nc(-c2nc(-c3c(C(=O)NNC(=O)c4ccc(Cl)cc4)noc3C)cs2)cs1	5.83%	29.1 µM [rising, single point]	
CCN(CC)C(=O)c1nc[nH]c1C(=O)N(C)Cc1ccccc1	19.4%	6.51 µM [falling, single point]	3.26 µM [falling, single point]
Cc1[nH]c2c(C)cccc2c1CCNC(=O)c1ccc2c(c1[N+](=O)[O-])C(=O)c1ccccc1C2=O	-54.8%	29.1 µM [falling, single point]	20.6 µM [falling, partial curve]
Cc1onc(-c2ccccc2Cl)c1C(=O)NNC(=O)c1ccc(F)cc1		0.116 µM [falling, single point]	

(cont.)

| Compound | cell number change | AC50 [1] | AC50 [2] |
| --- | --- | --- | --- |
| CCC(C)NS(=O)(=O)c1ccc(N)cc1 (stereo not given) | -47.3% | 0.00731 µM [falling, full curve] | 0.184 µM [falling, full curve, poor fit] |
| O=c1c(Cc2ccc(F)cc2)c(O)ccn1CCc1cnc[nH]1 | 45.6% | 6.51 µM [rising, single point] |  |
| O=C(Nc1ccncc1)c1ccc(N2CCCC2=O)cc1 | 14.7% | 29.1 µM [falling, single point] |  |
| COc1cc2cc(CN(Cc3cccnc3)C(=O)Nc3ccccc3)c(=O)[nH]c2cc1OC | -19.8% | 1.84 µM [falling, full curve, poor fit] |  |
| CC1(c2ccccc2Cl)NC(=O)N(CC(=O)Nc2ccccc2OC(F)F)C1=O (stereo not given) | -38.9% |  | 6.51 µM [falling, partial curve, poor fit] |
| CCOC(=O)c1[nH]c2ccc(Cl)cc2c1NC(=O)/C=C/c1ccc2c(c1)OCO2 | -30.4% |  | 5.17 µM [falling, partial curve] |
| COC(=O)c1ccc(NC(=O)Cn2nc(C)c3ccccc3c2=O)cc1 | 14% | 29.1 µM [rising, single point] | 0.259 µM [rising, full curve, poor fit] |
| COc1ccc(C(=O)COC(=O)CCNS(=O)(=O)c2ccccc2)c(OC)c1 | 13.3% | 0.731 µM [falling, single point] |  |
| CC(=O)Nc1nc(C)cs1 | -53.7% | 0.517 µM [falling, full curve, poor fit] | 0.731 µM [falling, full curve] |
| Cc1ccc(NC(=O)CN(C)S(=O)(=O)c2cccc3cccnc23)cc1 | -2.03% |  |  |
| O=C(CSC1=NC(=O)C(c2ccccc2)C(=O)N1)Nc1ccccc1[N+](=O)[O-] (stereo not given) | -27.7% | 16.4 µM [falling, single point] |  |
| CCOC(=O)Cc1cnc(NC(=O)c2ccccc2)s1 | -11.1% |  |  |
| O=C(Nc1ccc(Br)cc1)C1CCCC1 | -13% | 29.1 µM [falling, single point] |  |
| Cc1cc(NC(=O)c2cc(-c3ccccn3)nc3ccc(Br)cc23)no1 |  | 11.6 µM [rising, single point] |  |
| O=C(Nc1ccccc1)Nc1ccc2snnc2c1 | -65.3% | 25.9 µM [falling, partial curve] | 23.1 µM [falling, partial curve] |
| CCC1CCCCN1CCCNC(=O)CN1C(=O)c2cccnc2Oc2ccc(C)cc21 (stereo not given) | 26.6% | 29.1 µM [rising, single point] |  |
| CC(C)c1nc2sc3c(=O)[nH]c(=S)[nH]c3c2c2c1CCC2 |  | 18.4 µM [falling, partial curve] |  |
| CC(OC(=O)C1CC=CCC1C(N)=O)C(Cl)=C(Cl)Cl (stereo not given) | -14% | 29.1 µM [falling, single point] |  |
| COc1ccc(S(=O)(=O)N(C)c2ccc(C(N)=O)cc2)cc1 |  | 2.06 µM [falling, partial curve] |  |
| COC(=O)c1cc(NC(=O)CCc2c(C)nc3ncnn3c2C)cc(C(=O)OC)c1 | 26.2% |  |  |

Source: PubChem BioAssay AID2685 (National Center for Advancing Translational Sciences (NCATS), 2010)
